Earlier results on one molecule are cited in US6110955A, “Metabolically stabilized oxyalkylene esters and uses thereof” (Beacon Laboratories, Inc., priority 1997, dated 2000).

The data set deals with mitochondrial β-oxidation of fatty acids. To be noted: cited from earlier work.

Regarding `CCCCc1oc2ccccc2c1C(=O)c1cc(I)c(OCCN(CC)CC)c(I)c1` [aminodarone], the “mitochondrial β-oxidation of fatty acids” value is given as “decrease mitochondrial β-oxidation of fatty acids”.
